In paper PMC12823906:
These are yes or no findings as the source states them, for the method shown. Some binding calls cover weakened binding; strength is not graded here.

By UniProt entry, the sequences of proteins in these tests, tags left out.
UniProt Q04542: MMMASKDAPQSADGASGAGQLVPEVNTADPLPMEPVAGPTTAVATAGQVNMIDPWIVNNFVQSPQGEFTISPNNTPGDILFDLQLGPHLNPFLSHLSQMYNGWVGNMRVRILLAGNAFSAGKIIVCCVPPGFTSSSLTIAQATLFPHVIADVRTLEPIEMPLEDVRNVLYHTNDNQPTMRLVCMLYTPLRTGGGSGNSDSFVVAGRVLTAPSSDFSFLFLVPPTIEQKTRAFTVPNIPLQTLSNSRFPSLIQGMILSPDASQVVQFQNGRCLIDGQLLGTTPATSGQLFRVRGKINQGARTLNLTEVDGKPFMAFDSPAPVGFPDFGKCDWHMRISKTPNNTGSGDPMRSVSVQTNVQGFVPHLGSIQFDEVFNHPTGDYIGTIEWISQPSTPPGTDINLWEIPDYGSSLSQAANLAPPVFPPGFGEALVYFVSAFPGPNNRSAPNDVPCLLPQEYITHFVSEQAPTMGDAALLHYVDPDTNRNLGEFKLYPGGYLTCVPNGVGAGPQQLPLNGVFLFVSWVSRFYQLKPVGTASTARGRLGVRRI

How the values were obtained:
[1] = molecular target: Norovirus GI.2 major capsid protein VP1 (Norovirus GI.2) (UniProt Q04542); test: dynamic light scattering; purified VP1 after anion exchange; ELSZ-2000ZS, room temperature; self-assembly into particles; both purified
[2] = molecular target: Norovirus GI.2 major capsid protein VP1 (Norovirus GI.2) (UniProt Q04542); test: SEC; Superose 6 Increase 10/300 GL, 50 mM sodium phosphate, 500 mM NaCl, pH 7.0, room temperature; self-assembly into particles; both purified
[3] = molecular target: Norovirus GI.2 major capsid protein VP1 (Norovirus GI.2) (UniProt Q04542); test: negative-stain transmission electron microscopy; purified VP1 on carbon-coated copper grids, 2% uranyl acetate, Tecnai 20; self-assembly into particles; both purified

Measured: binding

Norovirus GI.2 major capsid protein VP1 (from UniProt Q04542 1-546)
binds: [1] | [2] | [3]
